This note sets out measurements from paper PMC11564547, “An interaction network of inner centriole proteins organised by POC1A-POC1B heterodimer crosslinks ensures centriolar integrity” (Nature Communications, 2024).

One assay deals with T1, FAM161A-HA (UniProt Q3B820).
T1 sequence: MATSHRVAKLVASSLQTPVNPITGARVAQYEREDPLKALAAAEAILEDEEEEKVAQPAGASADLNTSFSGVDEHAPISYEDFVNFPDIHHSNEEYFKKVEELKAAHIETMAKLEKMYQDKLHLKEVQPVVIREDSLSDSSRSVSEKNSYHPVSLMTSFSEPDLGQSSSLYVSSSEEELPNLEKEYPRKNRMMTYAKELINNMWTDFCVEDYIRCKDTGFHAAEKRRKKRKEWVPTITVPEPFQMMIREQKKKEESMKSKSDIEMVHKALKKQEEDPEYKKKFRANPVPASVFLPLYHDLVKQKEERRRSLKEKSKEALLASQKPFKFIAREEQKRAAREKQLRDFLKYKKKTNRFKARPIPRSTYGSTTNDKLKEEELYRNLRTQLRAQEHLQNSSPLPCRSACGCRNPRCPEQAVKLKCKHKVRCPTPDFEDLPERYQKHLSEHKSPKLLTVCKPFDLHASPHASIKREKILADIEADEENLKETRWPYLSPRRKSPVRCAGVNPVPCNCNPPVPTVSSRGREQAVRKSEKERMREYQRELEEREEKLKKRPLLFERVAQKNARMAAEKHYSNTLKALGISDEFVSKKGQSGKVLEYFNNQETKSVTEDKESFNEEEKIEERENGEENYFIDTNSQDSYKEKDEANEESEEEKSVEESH
As to the kind of experiment: co-IP; HA IP from HEK293T cells co-expressing HA-tagged FAM161A (bait) and FLAG-tagged POC1 constructs (prey); same lysis and washes; beads boiled in Laemmli buffer; immunoblot. For orientation: Immunoblotting shows a protein as a band on a membrane.

The target in assay [1] is FLAG-tagged C-terminal coiled-coil region of POC1A (human). As to the kind of experiment: co-IP; FLAG IP from HEK293T cells co-expressing FLAG-tagged POC1 constructs (bait) and HA-tagged partners (prey), Dox-induced, harvested after 24 h; lysis 150 mM NaCl, 10 mM Tris-Cl pH 7.5, 0.5 mM EDTA, 0.5% NP-40, Benzonase; beads 1 h at 4 °C; washes 300 mM NaCl; elution with FLAG peptide; immunoblot.

For assay [2], the target named is FLAG-tagged C-terminal coiled-coil region of POC1B (human). The description is as above.
Assay [3] deals with FLAG-tagged WD40 domain of POC1A (human). The description is as above.
Assay [4] deals with FLAG-tagged WD40 domain of POC1B (human). The description is as above.

These are yes or no findings as the source states them, for the method shown. Binding seen in cells or lysates may run through a third protein. For some assays here: Binding calls can cover weak binding; strength is not graded here. Sequences can lack the tags named with a protein.

For “FLAG-tagged WD40 domain of POC1B (human) (domain or fragment)”, in the assay with FAM161A-HA, the binding entry is reported as “no binding”.

Take “FLAG-tagged C-terminal coiled-coil region of POC1A (human) (domain or fragment)”: the binding result with FAM161A-HA is “no binding”.

Take “FLAG-tagged WD40 domain of POC1A (human) (domain or fragment)”: in the assay with FAM161A-HA, the binding entry is on record as “no binding”.

“FLAG-tagged C-terminal coiled-coil region of POC1B (human) (domain or fragment)”: the binding result with FAM161A-HA is recorded as “no binding”.

B1: MDM1-HA (protein, UniProt Q8TC05 1-714)
chain: MPVRFKGLSEYQRNFLWKKSYLSESCNSSVGRKYPWAGLRSDQLGITKEPSFISKRRVPYHDPQISKSLEWNGAISESNVVASPEPEAPETPKSQEAEQKDVTQERVHSLEASRVPKRTRSHSADSRAEGASDVENNEGVTNHTPVNENVELEHSTKVLSENVDNGLDRLLRKKAGLTVVPSYNALRNSEYQRQFVWKTSKETAPAFAANQVFHNKSQFVPPFKGNSVIHETEYKRNFKGLSPVKEPKLRNDLRENRNLETVSPERKSNKIDDRLKLEAEMELKDLHQPKRKLTPWKHQRLGKVNSEYRAKFLSPAQYLYKAGAWTHVKGNMPNQVKELREKAEFYRKRVQGTHFSRDHLNQILSDSNCCWDVSSTTSSEGTVSSNIRALDLAGDPTSHKTLQKCPSTEPEEKGNIVEEQPQKNTTEKLGVSAPTIPVRRRLAWDTENTSEDVQKQPGEKEEEDDNEEEGDRKTGKQAFMGEQEKLDVREKSKADKMKEGSDSSVSSEKGGRLPTPKLRELGGIQRTHHDLTTPAVGGAVLVSPSKMKPPAPEQRKRMTSQDCLETSKNDFTKKESRAVSLLTSPAAGIKTVDPLPLREDSEDNIHKFAEATLPVSKIPKYPTNPPGQLPSPPHVPSYWHPSRRIQGSLRDPEFQHNVGKARMNNLQLPQHEAFNDEDEDRLSEISARSAASSLRAFQTLARAKKRKENFWGKT
For the molecule B1, the binding result in assay [1] is “binds”; in assay [2], “binds”; in assay [3] it was “no binding”; in assay [4], “no binding”.
